Laboratory results from the supplement of paper PMC10849652.
Some of the results follow.

Chains of the proteins cited; added tags and fusions are not shown. Lines headed by an entry give the natural chain unless they say otherwise; changes in a name come on top.
UniProt Q6P1N9: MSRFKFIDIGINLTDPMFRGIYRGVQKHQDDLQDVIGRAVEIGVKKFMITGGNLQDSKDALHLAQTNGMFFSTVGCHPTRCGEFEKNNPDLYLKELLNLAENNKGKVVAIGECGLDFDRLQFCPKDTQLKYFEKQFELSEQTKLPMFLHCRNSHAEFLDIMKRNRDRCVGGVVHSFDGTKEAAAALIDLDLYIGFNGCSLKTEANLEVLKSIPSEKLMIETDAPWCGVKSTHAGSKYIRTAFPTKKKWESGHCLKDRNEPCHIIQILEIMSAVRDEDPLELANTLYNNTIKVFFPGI
UniProt Q9NYB0: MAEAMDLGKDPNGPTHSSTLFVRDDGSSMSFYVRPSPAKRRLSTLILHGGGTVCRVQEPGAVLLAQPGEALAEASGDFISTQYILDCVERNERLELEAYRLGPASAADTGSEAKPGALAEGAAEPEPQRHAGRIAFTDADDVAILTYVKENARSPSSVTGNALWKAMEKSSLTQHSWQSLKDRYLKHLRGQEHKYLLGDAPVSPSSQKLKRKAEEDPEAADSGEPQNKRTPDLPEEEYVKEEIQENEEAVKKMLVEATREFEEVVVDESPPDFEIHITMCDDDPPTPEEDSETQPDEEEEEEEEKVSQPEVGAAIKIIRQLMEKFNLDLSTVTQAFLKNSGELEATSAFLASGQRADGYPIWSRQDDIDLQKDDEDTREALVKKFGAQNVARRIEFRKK
UniProt Q9UHD2: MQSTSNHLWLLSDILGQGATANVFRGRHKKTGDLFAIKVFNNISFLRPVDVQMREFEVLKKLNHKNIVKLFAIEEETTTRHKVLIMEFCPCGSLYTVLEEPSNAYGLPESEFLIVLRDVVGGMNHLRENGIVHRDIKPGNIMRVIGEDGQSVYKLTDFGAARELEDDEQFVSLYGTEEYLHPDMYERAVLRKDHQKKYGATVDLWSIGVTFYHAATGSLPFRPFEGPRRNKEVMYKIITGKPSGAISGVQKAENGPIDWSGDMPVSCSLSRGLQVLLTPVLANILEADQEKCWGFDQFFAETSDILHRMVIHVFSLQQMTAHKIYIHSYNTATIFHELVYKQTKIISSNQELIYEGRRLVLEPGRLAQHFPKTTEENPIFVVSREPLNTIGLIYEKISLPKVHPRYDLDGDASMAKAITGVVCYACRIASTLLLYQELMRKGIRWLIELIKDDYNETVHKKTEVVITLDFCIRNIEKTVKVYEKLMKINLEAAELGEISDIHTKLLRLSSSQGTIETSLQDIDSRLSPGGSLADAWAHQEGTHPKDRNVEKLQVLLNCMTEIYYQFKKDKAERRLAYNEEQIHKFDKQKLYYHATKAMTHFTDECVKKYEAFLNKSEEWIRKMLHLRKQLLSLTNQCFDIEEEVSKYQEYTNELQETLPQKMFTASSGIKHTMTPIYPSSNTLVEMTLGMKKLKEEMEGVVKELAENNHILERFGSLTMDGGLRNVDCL
UniProt P20061: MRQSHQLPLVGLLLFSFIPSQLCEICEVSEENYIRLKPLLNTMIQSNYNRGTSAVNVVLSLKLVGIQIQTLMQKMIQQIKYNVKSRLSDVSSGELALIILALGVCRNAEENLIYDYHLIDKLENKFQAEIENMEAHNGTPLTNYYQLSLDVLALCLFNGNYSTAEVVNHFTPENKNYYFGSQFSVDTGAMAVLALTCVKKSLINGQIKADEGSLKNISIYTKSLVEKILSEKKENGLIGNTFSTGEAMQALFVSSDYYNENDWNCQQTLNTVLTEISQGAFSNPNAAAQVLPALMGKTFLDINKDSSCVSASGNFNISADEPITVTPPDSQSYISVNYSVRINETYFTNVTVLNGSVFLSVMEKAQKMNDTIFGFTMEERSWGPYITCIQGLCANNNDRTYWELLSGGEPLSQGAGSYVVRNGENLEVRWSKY
UniProt P20226, whole entry, looked up: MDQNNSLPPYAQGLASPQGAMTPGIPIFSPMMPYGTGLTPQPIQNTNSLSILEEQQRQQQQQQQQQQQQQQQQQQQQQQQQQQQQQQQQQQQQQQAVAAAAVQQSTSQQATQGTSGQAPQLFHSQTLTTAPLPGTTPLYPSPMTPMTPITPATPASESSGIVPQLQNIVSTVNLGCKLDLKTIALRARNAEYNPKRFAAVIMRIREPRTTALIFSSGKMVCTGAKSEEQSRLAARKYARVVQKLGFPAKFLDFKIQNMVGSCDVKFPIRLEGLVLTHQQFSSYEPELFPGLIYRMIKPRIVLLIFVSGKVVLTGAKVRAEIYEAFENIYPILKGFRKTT
UniProt Q01664: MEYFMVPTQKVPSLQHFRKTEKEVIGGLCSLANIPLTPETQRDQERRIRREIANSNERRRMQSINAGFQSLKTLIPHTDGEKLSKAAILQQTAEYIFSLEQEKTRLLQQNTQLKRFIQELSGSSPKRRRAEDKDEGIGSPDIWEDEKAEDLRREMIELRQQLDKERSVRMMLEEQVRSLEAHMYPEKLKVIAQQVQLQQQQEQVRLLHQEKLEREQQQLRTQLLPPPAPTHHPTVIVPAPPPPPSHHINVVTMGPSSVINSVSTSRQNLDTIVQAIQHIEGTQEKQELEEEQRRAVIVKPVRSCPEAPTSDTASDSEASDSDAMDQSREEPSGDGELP
UniProt P28347, whole entry, looked up: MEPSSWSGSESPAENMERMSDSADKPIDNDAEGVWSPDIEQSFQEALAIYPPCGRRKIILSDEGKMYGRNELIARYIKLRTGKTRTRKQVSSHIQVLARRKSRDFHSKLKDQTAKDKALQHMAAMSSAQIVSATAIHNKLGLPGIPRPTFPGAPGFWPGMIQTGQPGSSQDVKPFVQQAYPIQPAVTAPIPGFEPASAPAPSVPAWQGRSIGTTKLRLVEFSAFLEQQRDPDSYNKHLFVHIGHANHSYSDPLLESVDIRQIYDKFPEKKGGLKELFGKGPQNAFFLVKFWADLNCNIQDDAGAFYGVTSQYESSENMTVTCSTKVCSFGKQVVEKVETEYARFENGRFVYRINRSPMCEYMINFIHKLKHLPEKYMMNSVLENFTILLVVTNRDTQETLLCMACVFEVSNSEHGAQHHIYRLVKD
UniProt Q5VWP2: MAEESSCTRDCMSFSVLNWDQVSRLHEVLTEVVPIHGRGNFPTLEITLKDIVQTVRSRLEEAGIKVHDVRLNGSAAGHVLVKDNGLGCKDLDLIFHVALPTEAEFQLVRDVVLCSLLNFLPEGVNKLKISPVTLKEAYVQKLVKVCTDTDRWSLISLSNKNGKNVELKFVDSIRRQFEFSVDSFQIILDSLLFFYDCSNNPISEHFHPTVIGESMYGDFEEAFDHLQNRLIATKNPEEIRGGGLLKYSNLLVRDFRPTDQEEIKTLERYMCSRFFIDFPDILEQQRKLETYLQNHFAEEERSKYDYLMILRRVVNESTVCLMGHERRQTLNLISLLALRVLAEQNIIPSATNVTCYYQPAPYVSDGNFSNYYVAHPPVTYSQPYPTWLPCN
UniProt Q96EI5: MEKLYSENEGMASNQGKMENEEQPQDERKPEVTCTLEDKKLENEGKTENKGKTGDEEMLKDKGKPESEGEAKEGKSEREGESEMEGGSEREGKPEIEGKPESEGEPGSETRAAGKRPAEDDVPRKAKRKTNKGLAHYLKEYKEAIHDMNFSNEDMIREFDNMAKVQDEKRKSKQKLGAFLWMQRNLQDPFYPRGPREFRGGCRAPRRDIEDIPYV
UniProt P10646, whole entry, looked up: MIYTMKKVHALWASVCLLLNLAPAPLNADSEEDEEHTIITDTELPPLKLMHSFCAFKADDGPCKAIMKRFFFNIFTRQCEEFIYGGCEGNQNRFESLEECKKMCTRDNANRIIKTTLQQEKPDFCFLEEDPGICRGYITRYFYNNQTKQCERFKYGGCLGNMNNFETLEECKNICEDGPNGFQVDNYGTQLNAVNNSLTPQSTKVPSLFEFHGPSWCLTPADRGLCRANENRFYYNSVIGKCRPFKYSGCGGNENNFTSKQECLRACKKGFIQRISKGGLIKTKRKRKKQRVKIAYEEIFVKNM
UniProt O95455: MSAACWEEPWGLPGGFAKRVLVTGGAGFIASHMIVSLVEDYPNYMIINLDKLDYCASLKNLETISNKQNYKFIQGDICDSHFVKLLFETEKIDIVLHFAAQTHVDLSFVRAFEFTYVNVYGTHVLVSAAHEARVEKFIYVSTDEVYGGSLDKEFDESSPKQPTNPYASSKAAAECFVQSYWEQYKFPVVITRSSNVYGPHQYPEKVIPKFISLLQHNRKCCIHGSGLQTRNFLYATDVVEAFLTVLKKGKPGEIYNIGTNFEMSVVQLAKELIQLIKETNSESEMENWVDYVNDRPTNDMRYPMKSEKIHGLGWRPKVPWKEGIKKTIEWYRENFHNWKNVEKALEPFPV
UniProt Q5QJ74: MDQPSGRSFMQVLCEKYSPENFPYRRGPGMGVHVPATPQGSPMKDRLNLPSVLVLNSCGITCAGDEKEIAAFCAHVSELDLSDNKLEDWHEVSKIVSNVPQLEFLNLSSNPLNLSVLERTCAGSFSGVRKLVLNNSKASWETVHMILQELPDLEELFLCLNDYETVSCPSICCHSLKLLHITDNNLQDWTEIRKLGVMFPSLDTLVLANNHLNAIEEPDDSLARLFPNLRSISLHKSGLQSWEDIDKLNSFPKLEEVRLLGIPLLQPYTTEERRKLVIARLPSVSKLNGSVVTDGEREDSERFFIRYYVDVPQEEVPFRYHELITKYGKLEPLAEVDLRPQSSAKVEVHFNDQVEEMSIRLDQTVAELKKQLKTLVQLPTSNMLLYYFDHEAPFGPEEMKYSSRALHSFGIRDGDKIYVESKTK
UniProt Q8N9U0: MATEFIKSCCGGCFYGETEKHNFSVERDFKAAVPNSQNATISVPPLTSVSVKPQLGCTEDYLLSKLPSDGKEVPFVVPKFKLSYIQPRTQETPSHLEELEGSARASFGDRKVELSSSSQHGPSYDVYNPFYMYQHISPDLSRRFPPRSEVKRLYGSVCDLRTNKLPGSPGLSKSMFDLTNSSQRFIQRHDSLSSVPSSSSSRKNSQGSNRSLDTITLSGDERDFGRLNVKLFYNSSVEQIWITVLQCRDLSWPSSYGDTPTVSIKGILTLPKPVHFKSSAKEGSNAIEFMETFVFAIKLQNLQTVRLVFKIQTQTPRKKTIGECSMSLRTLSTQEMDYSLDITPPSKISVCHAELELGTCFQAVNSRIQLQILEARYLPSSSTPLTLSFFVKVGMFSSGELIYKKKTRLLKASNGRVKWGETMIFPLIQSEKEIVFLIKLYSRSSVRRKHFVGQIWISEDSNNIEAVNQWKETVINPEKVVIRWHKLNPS
UniProt Q96MN5: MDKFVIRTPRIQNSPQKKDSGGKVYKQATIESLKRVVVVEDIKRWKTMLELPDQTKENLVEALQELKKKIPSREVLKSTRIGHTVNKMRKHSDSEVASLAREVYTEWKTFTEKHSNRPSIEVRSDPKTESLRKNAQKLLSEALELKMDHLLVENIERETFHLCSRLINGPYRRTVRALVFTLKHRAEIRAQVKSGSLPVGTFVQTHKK
UniProt Q9UL54: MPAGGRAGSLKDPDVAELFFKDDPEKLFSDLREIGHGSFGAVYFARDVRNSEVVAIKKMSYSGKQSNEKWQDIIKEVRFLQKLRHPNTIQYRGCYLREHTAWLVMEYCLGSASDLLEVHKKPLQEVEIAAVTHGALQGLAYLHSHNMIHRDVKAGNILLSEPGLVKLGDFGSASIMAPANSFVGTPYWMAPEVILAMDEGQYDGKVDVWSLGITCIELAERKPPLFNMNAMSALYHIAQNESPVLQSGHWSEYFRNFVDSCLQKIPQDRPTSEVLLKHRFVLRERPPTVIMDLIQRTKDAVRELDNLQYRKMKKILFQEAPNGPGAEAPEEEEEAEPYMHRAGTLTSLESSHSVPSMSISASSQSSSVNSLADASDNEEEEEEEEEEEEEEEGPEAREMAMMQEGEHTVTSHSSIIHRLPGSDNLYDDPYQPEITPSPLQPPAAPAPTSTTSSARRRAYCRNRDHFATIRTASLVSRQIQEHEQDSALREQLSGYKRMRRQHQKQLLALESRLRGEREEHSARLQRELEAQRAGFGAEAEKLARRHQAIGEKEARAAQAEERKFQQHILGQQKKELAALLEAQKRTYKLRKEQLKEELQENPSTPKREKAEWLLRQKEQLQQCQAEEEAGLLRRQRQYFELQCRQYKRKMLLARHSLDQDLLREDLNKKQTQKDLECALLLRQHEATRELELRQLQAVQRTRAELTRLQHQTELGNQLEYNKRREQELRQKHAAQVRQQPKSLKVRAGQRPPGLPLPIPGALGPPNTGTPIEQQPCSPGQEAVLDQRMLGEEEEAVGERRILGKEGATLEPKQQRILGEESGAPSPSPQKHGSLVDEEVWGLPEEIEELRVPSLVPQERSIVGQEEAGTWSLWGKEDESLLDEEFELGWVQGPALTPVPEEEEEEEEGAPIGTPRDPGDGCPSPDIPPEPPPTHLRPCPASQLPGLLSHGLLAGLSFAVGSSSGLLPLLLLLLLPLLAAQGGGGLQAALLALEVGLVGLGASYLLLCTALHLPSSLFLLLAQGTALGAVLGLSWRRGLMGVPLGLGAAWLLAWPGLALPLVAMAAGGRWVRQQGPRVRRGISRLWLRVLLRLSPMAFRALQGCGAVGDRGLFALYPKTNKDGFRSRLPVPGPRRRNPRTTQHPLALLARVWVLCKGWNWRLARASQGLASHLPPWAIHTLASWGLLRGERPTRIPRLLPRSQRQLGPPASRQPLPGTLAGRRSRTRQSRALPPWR

Assays:
Test in all cases: log2 fold change, soluble protein after heating vs DMSO (PISA); higher = thermal stabilisation; K562 lysate, 10 uM; active = over 0.2 and 3.5 SD of the protein, either way, in both replicates (recomputed)
[1] = compound: CN1CC[C@H](c2c(O)cc(O)c3c(=O)cc(-c4ccccc4Cl)oc23)[C@H](O)C1 [alvocidib]
Summary of the method: (§1)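 Quantification was by TMTpro 16plex LC-MS/MS with equalised channel sums, applied to the supernatant after 21,000xg for 90 min. Samples were crude K562 extract at 1 mg/mL protein in PBS pH 7.4 with 1 mM MgCl2, treated with 10 μM compound for 30 min, heated for 3 min across 48°C-58°C, pooled and brought to 0.5% NP-40 at 4°C. Values are log-two fold changes in thermal stability relative to solvent controls, from duplicates.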

[2] = compound: CN1CCc2c(c3ccccc3n2Cc2ccc(C(=O)NO)cc2)C1 [Tubastatin A]
Summary of the method: as §1

[3] = compound: CNC(=O)C1=CC=CC=C1NC2=NC(=NC=C2Cl)NC3=C(C=C(C=C3)N4CCOCC4)OC
Summary of the method: as §1

[4] = compound: CNC(=O)c1ccc(Nc2ncc(C(F)(F)F)c(NCc3nccnc3N(C)S(C)(=O)=O)n2)cc1 [defactinib]
Summary of the method: as §1

[5] = compound: CNc1nc(-c2ccc3c(N)n[nH]c3c2)cc(N2C[C@@H](C(=O)NC3CCCCC3)CC[C@H]2C)n1
Summary of the method: as §1

[6] = compound: COC(=O)N[C@@H](C)CNc1nccc(-c2cn(C(C)C)nc2-c2cc(Cl)cc(NS(C)(=O)=O)c2F)n1 [encorafenib]
Summary of the method: as §1

[7] = compound: COC(=O)[C@H](CCSC)NC(=O)C1=C(C=C(C=C1)NC[C@H](CS)N)C2=CC=CC=C2
Summary of the method: as §1

[8] = compound: COc1cc(Nc2ncc3c(n2)-c2ccc(Cl)cc2C(c2c(F)cccc2OC)=NC3)ccc1C(=O)O [alisertib]
Summary of the method: as §1

[9] = compound: COc1cc2nc(-c3cc(F)ccc3O)nc(N[C@@H]3CNC[C@H]3C(C)(C)O)c2cc1OC
Summary of the method: as §1

[10] = compound: COc1cc2ncnc(Nc3ccc(F)c(Cl)c3)c2cc1OCCCN1CCOCC1 [gefitinib]
Summary of the method: as §1

[11] = compound: CS(=O)(=O)CCNCc1ccc(-c2ccc3ncnc(Nc4ccc(OCc5cccc(F)c5)c(Cl)c4)c3c2)o1 [lapatinib]
Summary of the method: as §1

[12] = compound: CS(=O)(=O)N1CCN(Cc2cc3nc(-c4cccc5[nH]ncc45)nc(N4CCOCC4)c3s2)CC1 [pictilisib]
Summary of the method: as §1

[13] = compound: C[C@@H](Oc1cc(-c2cnn(C3CCNCC3)c2)cnc1N)c1c(Cl)ccc(F)c1Cl [crizotinib]
Summary of the method: as §1

[14] = compound: C[C@H](C1=CC=C(C=C1)C(=O)NC2=C3C=CNC3=NC=C2)N
Summary of the method: as §1

[15] = compound: C[C@H](Nc1ncnc2nc[nH]c12)c1cc2cccc(Cl)c2c(=O)n1-c1ccccc1 [duvelisib]
Summary of the method: as §1

[16] = compound: Cc1cc(Nc2cc(CN3CCOCC3)c3nc(C)c(Cc4ccc(Cl)cc4F)n3n2)n[nH]1 [gandotinib]
Summary of the method: as §1

[17] = compound: Cc1cc(Nc2cc(N3CCN(C)CC3)nc(Sc3ccc(NC(=O)C4CC4)cc3)n2)n[nH]1 [tozasertib]
Summary of the method: as §1

[18] = compound: Cc1ccc(-n2nc(C(C)(C)C)cc2NC(=O)Nc2ccc(OCCN3CCOCC3)c3ccccc23)cc1 [doramapimod]
Summary of the method: as §1

[19] = compound: Cc1ccc(NC(=O)c2ccc(CN3CC[C@H](N(C)C)C3)c(C(F)(F)F)c2)cc1Nc1nccc(-c2cncnc2)n1 [bafetinib]
Summary of the method: as §1

[20] = compound: Cc1cccc(CC(=O)N2CCc3c2ccc(-c2cn(C)c4ncnc(N)c24)c3F)n1
Summary of the method: as §1

Target | log2 fold change [1] | log2 fold change [2] | log2 fold change [3] | log2 fold change [4] | log2 fold change [5] | log2 fold change [6] | log2 fold change [7] | log2 fold change [8] | log2 fold change [9] | log2 fold change [10] | log2 fold change [11] | log2 fold change [12] | log2 fold change [13] | log2 fold change [14] | log2 fold change [15] | log2 fold change [16] | log2 fold change [17] | log2 fold change [18] | log2 fold change [19] | log2 fold change [20]
TEPSIN, A0A1B0GV70 | inactive: -0.01 | inactive: -0.123 | inactive: 0.171 | inactive: 0.019 | inactive: -0.112 | inactive: -0.054 | inactive: -0.14 | inactive: 0.012 | inactive: -0.058 | inactive: 0.094 | inactive: -0.071 | inactive: 0.024 | inactive: 0.129 | inactive: 0.019 | inactive: 0.204 | inactive: -0.041 | inactive: 0.303 | inactive: -0.049 | inactive: 0.034 | inactive: 0.041
TATDN1 (UniProt Q6P1N9) | inactive: -0.018 | inactive: 0.03 | inactive: 0.013 | inactive: -0.036 | inactive: -0.065 | inactive: -0.015 | inactive: -0.032 | inactive: -0.016 | inactive: 0.001 | inactive: 0.023 | inactive: 0.024 | inactive: 0.029 | inactive: 0.057 | inactive: 0.004 | inactive: 0.011 | inactive: 0.021 | inactive: -0.007 | inactive: 0.008 | inactive: 0.042 | inactive: 0.004
TERF2IP (UniProt Q9NYB0) | inactive: 0.087 | inactive: 0.014 | inactive: 0.009 | inactive: -0.008 | inactive: 0.019 | inactive: 0 | inactive: -0.038 | inactive: -0.015 | inactive: 0.011 | inactive: -0.003 | inactive: -0.007 | inactive: 0.007 | inactive: 0.021 | active: 0.249 | inactive: 0.022 | inactive: -0.122 | inactive: -0.023 | inactive: -0.016 | inactive: 0.004 | inactive: -0.181
TBK1 (UniProt Q9UHD2) |  | inactive: -0.16 | active: 0.528 | inactive: 0.328 | inactive: -0.035 | inactive: 0.014 | inactive: -0.293 | inactive: 0.039 | inactive: -0.007 | inactive: -0.032 | inactive: 0.042 | inactive: 0.054 | active: 0.469 | inactive: -0.059 | inactive: -0.046 | inactive: 0.342 | inactive: 0.314 | inactive: -0.024 | inactive: 0.007 | inactive: -0.044
TCN1 (UniProt P20061) | inactive: -0.057 | inactive: 0.579 | inactive: -0.252 |  |  | inactive: -0.151 | inactive: 0.042 | inactive: -0.003 |  | inactive: 0.018 |  | inactive: 0.198 | inactive: 0.237 | inactive: -0.041 |  | inactive: 0.185 | inactive: -0.064 | inactive: -0.123 | inactive: 0.185 | inactive: 0.962
TBP (UniProt P20226) | inactive: -0.046 | inactive: -0.015 | inactive: 0.02 |  | inactive: 0.082 | inactive: -0.023 | inactive: 0.19 | inactive: 0.017 | inactive: 0.029 | inactive: 0.073 | inactive: -0.06 | inactive: -0.011 | inactive: -0.154 | inactive: -0.128 | inactive: 0.043 | inactive: 0.02 | inactive: -0.262 | inactive: 0.075 | inactive: -0.043 | inactive: 0.105
TFAP4 (UniProt Q01664) | inactive: -0.037 | inactive: 0.135 | inactive: 0.133 | inactive: -0.066 |  | inactive: 0.156 | inactive: -0.108 | inactive: -0.106 | inactive: -0.097 | inactive: -0.096 | inactive: -0.05 | inactive: 0.022 | inactive: 0.009 | active: 0.477 |  | inactive: 0.033 | inactive: -0.05 | inactive: 0.017 | inactive: -0.214 | inactive: -0.217
TEAD1 (UniProt P28347) | inactive: 0.092 |  | inactive: 0.001 | inactive: -0.072 | inactive: 0.27 | inactive: 0 | inactive: -0.151 |  |  |  |  | inactive: 0.02 |  | inactive: 0.057 | inactive: 0.27 | inactive: -0.261 | inactive: -0.077 |  | inactive: 0.129 | inactive: -0.023
TENT5C (UniProt Q5VWP2) | inactive: 0.007 | inactive: 0.027 | inactive: -0.003 | inactive: -0.006 |  | inactive: -0.077 | inactive: -0.018 | inactive: 0.035 | inactive: 0.041 | inactive: -0.031 | inactive: 0.094 | inactive: 0.03 | inactive: -0.091 | inactive: 0.113 |  | inactive: -0.02 | inactive: 0.017 | inactive: 0.098 | inactive: -0.027 | inactive: -0.135
TCEAL4 isoform 2 (UniProt Q96EI5) | inactive: -0.108 |  |  | inactive: 0 | inactive: -0.027 | inactive: 0.107 | inactive: -0.024 |  | inactive: 0.044 |  | inactive: 0.074 | inactive: -0.071 | inactive: -0.048 | inactive: 0.01 | inactive: 0.018 | inactive: 0.019 | inactive: 0.028 | inactive: 0.036 | inactive: 0.006 | inactive: 0.079
TFPI (UniProt P10646) | inactive: 0.245 | inactive: -0.012 | inactive: 0.036 | inactive: 0.056 |  | inactive: 0.072 | inactive: -0.017 | inactive: -0.003 | inactive: -0.128 | inactive: 0.061 | inactive: -0.035 | inactive: 0.009 | inactive: 0.036 | active: 0.625 |  | inactive: -0.202 | inactive: -0.01 | inactive: 0.082 | inactive: 0.149 | inactive: -0.301
TGDS (UniProt O95455) | inactive: -0.056 |  |  |  |  |  |  | inactive: 0.044 | inactive: 0.078 | inactive: 0.169 | inactive: -0.055 | inactive: 0.169 | inactive: -0.063 | inactive: -0.028 |  | inactive: 0.021 |  | inactive: 0.012 | inactive: -0.056 | inactive: 0.138
TBCEL (UniProt Q5QJ74) | inactive: -0.127 | inactive: 0.055 | inactive: -0.082 | inactive: -0.059 | inactive: 0.013 |  |  | inactive: 0.136 |  | inactive: -0.206 |  | inactive: 0.469 |  | inactive: 0.267 | inactive: -0.029 | inactive: -0.14 |  |  | inactive: 0.478 | inactive: 0.404
TBCK (UniProt Q8TEA7) | inactive: 0.017 | inactive: 0.014 | inactive: -0.041 |  | inactive: 0.034 | inactive: 0.023 | inactive: 0.043 | inactive: -0.067 | inactive: 0.012 | inactive: 0.004 | inactive: -0.01 | inactive: -0.12 | inactive: -0.008 | inactive: 0.047 | inactive: -0.032 | inactive: -0.209 | inactive: 0.014 | inactive: 0.014 | inactive: 0.025 | inactive: -0.04
TC2N (UniProt Q8N9U0) | inactive: -0.063 |  |  | inactive: -0.006 |  | inactive: -0.006 | inactive: -0.069 |  |  |  |  |  |  | inactive: 0.099 |  | inactive: -0.159 | inactive: 0.173 |  |  | inactive: -0.048
TCF4 (UniProt P15884) | inactive: 0.005 | inactive: -0.282 |  |  | inactive: -0.009 | inactive: 0.17 | inactive: -0.099 | inactive: 0.078 | inactive: 0.212 | inactive: 0.06 | inactive: -0.212 |  | inactive: 0.128 | inactive: 0.039 | inactive: 0.039 | inactive: -0.022 | inactive: -0.044 | inactive: -0.099 |  | inactive: 0
TEDC2 (UniProt Q7L2K0) | inactive: 0.063 |  |  |  |  |  |  | inactive: 0.046 | inactive: -0.173 | inactive: 0.014 | inactive: 0.008 |  | inactive: 0.05 | inactive: 0.014 |  | inactive: -0.087 |  | inactive: -0.129 |  | inactive: 0.05
TDRD15 (UniProt B5MCY1) |  | inactive: -0.06 | inactive: 0.016 | inactive: -0.063 | inactive: 0.171 | inactive: 0.171 | inactive: 0.003 | inactive: -0.064 | inactive: -0.082 | inactive: -0.075 | inactive: 0.045 |  | inactive: -0.137 |  | inactive: 0.047 |  | inactive: 0.025 | inactive: 0.034 |  | 
TCEANC2 (UniProt Q96MN5) |  | inactive: -0.004 | inactive: 0.023 | inactive: -0.029 | inactive: 0.029 | inactive: 0.105 | inactive: 0.031 | inactive: -0.17 |  | inactive: -0.293 |  | inactive: -0.046 |  |  | inactive: -0.073 |  | inactive: -0.063 |  | inactive: -0.055 | 
TAOK2 (UniProt Q9UL54) | inactive: -0.053 | inactive: 0.046 |  | inactive: -0.001 | inactive: -0.015 | inactive: -0.033 | inactive: 0.055 | inactive: 0.02 | inactive: 0.02 | inactive: -0.009 | inactive: -0.049 | inactive: -0.054 | inactive: -0.081 | inactive: -0.136 | inactive: -0.002 | inactive: 0.07 | inactive: -0.026 | inactive: 0.046 | inactive: -0.004 | inactive: 0.261

A stretch taken from the entries so far, as a working copy:
Target | log2 fold change [1] | log2 fold change [2] | log2 fold change [3] | log2 fold change [4] | log2 fold change [5] | log2 fold change [6] | log2 fold change [7] | log2 fold change [8] | log2 fold change [9] | log2 fold change [10] | log2 fold change [11] | log2 fold change [12] | log2 fold change [13] | log2 fold change [14] | log2 fold change [15] | log2 fold change [16] | log2 fold change [17] | log2 fold change [18] | log2 fold change [19] | log2 fold change [20]
TCF4 (UniProt P15884) | inactive: 0.005 | inactive: -0.282 |  |  | inactive: -0.009 | inactive: 0.17 | inactive: -0.099 | inactive: 0.078 | inactive: 0.212 | inactive: 0.06 | inactive: -0.212 |  | inactive: 0.128 | inactive: 0.039 | inactive: 0.039 | inactive: -0.022 | inactive: -0.044 | inactive: -0.099 |  | inactive: 0
TEDC2 (UniProt Q7L2K0) | inactive: 0.063 |  |  |  |  |  |  | inactive: 0.046 | inactive: -0.173 | inactive: 0.014 | inactive: 0.008 |  | inactive: 0.05 | inactive: 0.014 |  | inactive: -0.087 |  | inactive: -0.129 |  | inactive: 0.05
